Source: article PMC5673186
These are yes or no findings as the source states them, for the method shown. Some results given as binding are weak or reduced against the parent protein; the word gives no strength.

Sequences of proteins named here, by UniProt entry; tags and fusion partners are left off. A change or cut given only in a name is not applied to a line headed by its entry. Residues count along the entry.
UniProt Q9HCN6, residues 21-267: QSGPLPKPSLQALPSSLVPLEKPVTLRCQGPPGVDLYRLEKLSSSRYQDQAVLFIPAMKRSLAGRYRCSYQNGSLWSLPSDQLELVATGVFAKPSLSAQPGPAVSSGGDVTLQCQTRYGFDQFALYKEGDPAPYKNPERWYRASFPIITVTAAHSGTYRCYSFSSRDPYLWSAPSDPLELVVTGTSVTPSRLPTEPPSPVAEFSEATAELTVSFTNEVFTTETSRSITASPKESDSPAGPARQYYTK
UniProt P02453: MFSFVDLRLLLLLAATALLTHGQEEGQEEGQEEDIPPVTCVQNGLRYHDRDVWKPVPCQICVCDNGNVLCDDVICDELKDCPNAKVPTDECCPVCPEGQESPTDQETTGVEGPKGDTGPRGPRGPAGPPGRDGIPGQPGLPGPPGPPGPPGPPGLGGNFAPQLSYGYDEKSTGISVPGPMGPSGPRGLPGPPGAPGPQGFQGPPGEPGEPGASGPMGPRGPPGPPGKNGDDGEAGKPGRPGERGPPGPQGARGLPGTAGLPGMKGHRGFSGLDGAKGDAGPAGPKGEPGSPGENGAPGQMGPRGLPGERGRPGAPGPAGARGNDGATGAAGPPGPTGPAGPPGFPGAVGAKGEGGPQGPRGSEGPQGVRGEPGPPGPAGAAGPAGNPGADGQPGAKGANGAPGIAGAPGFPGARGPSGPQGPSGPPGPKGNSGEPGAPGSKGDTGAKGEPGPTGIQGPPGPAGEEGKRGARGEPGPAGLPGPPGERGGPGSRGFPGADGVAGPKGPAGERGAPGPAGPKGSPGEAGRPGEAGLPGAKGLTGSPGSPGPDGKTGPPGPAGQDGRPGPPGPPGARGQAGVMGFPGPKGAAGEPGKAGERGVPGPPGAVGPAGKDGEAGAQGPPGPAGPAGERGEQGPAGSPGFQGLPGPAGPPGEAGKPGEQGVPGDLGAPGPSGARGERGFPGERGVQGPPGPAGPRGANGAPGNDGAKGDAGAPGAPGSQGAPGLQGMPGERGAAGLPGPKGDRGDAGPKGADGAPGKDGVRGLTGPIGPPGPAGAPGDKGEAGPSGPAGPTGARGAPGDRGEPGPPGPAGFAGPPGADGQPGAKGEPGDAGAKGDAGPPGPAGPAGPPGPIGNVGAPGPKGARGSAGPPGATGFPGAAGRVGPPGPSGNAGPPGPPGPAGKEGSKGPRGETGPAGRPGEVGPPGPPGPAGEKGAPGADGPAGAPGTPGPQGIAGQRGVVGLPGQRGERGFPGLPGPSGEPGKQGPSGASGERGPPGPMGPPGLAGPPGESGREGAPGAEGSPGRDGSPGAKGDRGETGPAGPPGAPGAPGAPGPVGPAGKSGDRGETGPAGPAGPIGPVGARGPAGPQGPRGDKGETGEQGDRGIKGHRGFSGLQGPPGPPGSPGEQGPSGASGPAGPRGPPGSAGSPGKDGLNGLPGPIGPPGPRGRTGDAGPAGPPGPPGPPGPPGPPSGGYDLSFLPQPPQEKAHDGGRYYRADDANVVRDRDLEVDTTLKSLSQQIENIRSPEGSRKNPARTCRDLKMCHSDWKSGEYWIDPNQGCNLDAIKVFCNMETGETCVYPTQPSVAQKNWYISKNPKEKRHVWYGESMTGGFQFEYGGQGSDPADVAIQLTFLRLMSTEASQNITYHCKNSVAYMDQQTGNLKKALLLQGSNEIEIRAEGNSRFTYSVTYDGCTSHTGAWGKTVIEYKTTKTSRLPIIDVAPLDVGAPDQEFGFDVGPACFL

Molecular target: Platelet recombinant human GPVI Protein (aa21-267) with a C-terminal His6 tag (human) (UniProt Q9HCN6)
Assay: SPR; GPVI-His6 captured on anti-His antibody immobilised on a CM5 chip (Biacore T200); collagen flowed over as positive control; 18°C; 10 mM phosphate buffer, 2.7 mM KCl, 137 mM NaCl, pH 7.4; signals referenced to the anti-His antibody surface and normalised by capture level and molecular mass; both purified

Substance: Bovine Collagen Type I (from UniProt P02453 162-1217; P02465 80-1117)
- binding: binds
